Laboratory results: PMC12459091
Where two headings read alike, the source gives them in different places. These are yes or no findings as the source states them, for the method shown. Binding seen in cells or lysates may run through a third protein. Some binding calls cover weakened binding; strength is not graded here. For part of these data: Tags and fused reporters may be left off the sequences shown.

Protein sequences, listed by entry. Tags and fused reporters are not part of them.
UniProt P61026: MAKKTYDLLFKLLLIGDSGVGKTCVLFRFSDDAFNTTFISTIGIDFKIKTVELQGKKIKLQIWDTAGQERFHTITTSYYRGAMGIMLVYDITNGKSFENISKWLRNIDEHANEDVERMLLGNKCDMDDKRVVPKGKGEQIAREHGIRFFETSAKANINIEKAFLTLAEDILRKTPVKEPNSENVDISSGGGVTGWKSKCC

T1: mCherry-RILPL1 (UniProt Q5EBL4)
T1 sequence: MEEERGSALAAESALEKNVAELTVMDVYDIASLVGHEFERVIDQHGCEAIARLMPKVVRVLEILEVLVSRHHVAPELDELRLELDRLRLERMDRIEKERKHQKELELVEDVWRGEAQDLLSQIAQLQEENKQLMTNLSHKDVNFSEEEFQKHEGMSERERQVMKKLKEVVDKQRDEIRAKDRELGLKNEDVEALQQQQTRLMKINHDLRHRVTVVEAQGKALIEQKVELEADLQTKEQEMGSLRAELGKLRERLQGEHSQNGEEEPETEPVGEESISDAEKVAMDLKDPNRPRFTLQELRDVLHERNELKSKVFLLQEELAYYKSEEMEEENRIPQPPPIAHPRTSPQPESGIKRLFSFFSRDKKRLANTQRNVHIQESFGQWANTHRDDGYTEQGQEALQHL

T2: 2xmyc-RILPL1 (UniProt Q5EBL4)
T2 sequence: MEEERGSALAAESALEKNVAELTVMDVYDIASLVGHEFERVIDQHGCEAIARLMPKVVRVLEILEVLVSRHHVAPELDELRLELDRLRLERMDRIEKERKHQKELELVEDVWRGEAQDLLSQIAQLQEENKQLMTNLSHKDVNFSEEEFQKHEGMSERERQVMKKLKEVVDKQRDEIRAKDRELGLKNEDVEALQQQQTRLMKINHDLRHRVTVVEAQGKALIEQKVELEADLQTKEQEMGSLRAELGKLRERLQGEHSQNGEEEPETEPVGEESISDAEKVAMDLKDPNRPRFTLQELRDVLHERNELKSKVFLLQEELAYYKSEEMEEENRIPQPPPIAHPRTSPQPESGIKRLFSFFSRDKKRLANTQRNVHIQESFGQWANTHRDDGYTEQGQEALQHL


How the values were obtained:
[1] = molecular target: T1, mCherry-RILPL1; test: co-IP; HEK293FT cells transfected with 3xflag-LRRK2 and mCherry-RILPL1 for 24 h, treated or not with LLOME (2 h); lysates in IP buffer (20 mM Tris-HCl pH 7.5, 150 mM NaCl, 1 mM EDTA, 0.3% Triton X-100, 10% glycerol); RFP-Trap magnetic beads 1 h at 4°C; washes with 300 mM NaCl; immunoblot
[2] = molecular target: T2, 2xmyc-RILPL1; test: co-IP; HEK293T cells transfected with 3xflag-LRRK2 or HaloTag-LRRK2 and 2xmyc-RILPL1 for 24 h (one group also with Ubc-3xHA-JIP4), treated or not with LLOME (2 h); myc-Trap magnetic beads 1 h at 4°C; washes with 300 mM NaCl; immunoblot
[3] = molecular target: T1, mCherry-RILPL1; test: co-IP; U2OS cells transfected with HaloTag-LRRK2 and mCherry-RILPL1 for 36 h, treated or not with LLOME (2 h) or pre-treated with MLi2; immunoprecipitation with anti-RFP (RFP-Trap) beads; immunoblot
[4] = molecular target: T2, 2xmyc-RILPL1; test: co-IP; HEK293T cells transfected with 3xflag-LRRK2 or HaloTag-LRRK2 and 2xmyc-RILPL1 for 24 h (one group also with Ubc-3xHA-JIP4), treated or not with LLOME (2 h); myc-Trap magnetic beads 1 h at 4°C; washes with 300 mM NaCl; immunoblot; remark: listed apart in the source

binding [1] | binding [2] | binding [3] | binding [4] | Molecule
binds |  |  |  | p150^Glued (DCTN1) (from UniProt Q14203-1 1-1278)
binds | binds | binds |  | pT73-RAB10 (from UniProt P61026 1-200)
 |  |  | binds | pS106-RAB12 (protein, UniProt Q6IQ22-2 1-244, phosphoserine at 106 (pS106)) MDPGAALQRRAGGGGGLGAGSPALSGGQGRRRKQPPRPADFKLQVIIIGSRGVGKTSLMERFTDDTFCEACKSTVGVDFKIKTVELRGKKIRLQIWDTAGQERFNSITSAYYRSAKGIILVYDITKKETFDDLPKWMKMIDKYASEDAELLLVGNKLDCETDREITRQQGEKFAQQITGMRFCEASAKDNFNVDEIFLKLVDDILKKMPLDILRNELSNSILSLQPEPEIPPELPPPRPHVRCC
 |  |  | no binding | C-jun-amino-terminal kinase–interacting protein 4 (JIP4) (protein, UniProt O60271 1-1321) MELEDGVVYQEEPGGSGAVMSERVSGLAGSIYREFERLIGRYDEEVVKELMPLVVAVLENLDSVFAQDQEHQVELELLRDDNEQLITQYEREKALRKHAEEKFIEFEDSQEQEKKDLQTRVESLESQTRQLELKAKNYADQISRLEEREAELKKEYNALHQRHTEMIHNYMEHLERTKLHQLSGSDQLESTAHSRIRKERPISLGIFPLPAGDGLLTPDAQKGGETPGSEQWKFQELSQPRSHTSLKVSNSPEPQKAVEQEDELSDVSQGGSKATTPASTANSDVATIPTDTPLKEENEGFVKVTDAPNKSEISKHIEVQVAQETRNVSTGSAENEEKSEVQAIIESTPELDMDKDLSGYKGSSTPTKGIENKAFDRNTESLFEELSSAGSGLIGDVDEGADLLGMGREVENLILENTQLLETKNALNIVKNDLIAKVDELTCEKDVLQGELEAVKQAKLKLEEKNRELEEELRKARAEAEDARQKAKDDDDSDIPTAQRKRFTRVEMARVLMERNQYKERLMELQEAVRWTEMIRASRENPAMQEKKRSSIWQFFSRLFSSSSNTTKKPEPPVNLKYNAPTSHVTPSVKKRSSTLSQLPGDKSKAFDFLSEETEASLASRREQKREQYRQVKAHVQKEDGRVQAFGWSLPQKYKQVTNGQGENKMKNLPVPVYLRPLDEKDTSMKLWCAVGVNLSGGKTRDGGSVVGASVFYKDVAGLDTEGSKQRSASQSSLDKLDQELKEQQKELKNQEELSSLVWICTSTHSATKVLIIDAVQPGNILDSFTVCNSHVLCIASVPGARETDYPAGEDLSESGQVDKASLCGSMTSNSSAETDSLLGGITVVGCSAEGVTGAATSPSTNGASPVMDKPPEMEAENSEVDENVPTAEEATEATEGNAGSAEDTVDISQTGVYTEHVFTDPLGVQIPEDLSPVYQSSNDSDAYKDQISVLPNEQDLVREEAQKMSSLLPTMWLGAQNGCLYVHSSVAQWRKCLHSIKLKDSILSIVHVKGIVLVALADGTLAIFHRGVDGQWDLSNYHLLDLGRPHHSIRCMTVVHDKVWCGYRNKIYVVQPKAMKIEKSFDAHPRKESQVRQLAWVGDGVWVSIRLDSTLRLYHAHTYQHLQDVDIEPYVSKMLGTGKLGFSFVRITALMVSCNRLWVGTGNGVIISIPLTETNKTSGVPGNRPGSVIRVYGDENSDKVTPGTFIPYCSMAHAQLCFHGHRDAVKFFVAVPGQVISPQSSSSGTDLTGDKAGPSAQEPGSQTPLKSMLVISGGEGYIDFRMGDEGGESELLGEDLPLEPSVTKAERSHLIVWQVMYGNE
